This is an account of results in article PMC9479574.

Sequences of proteins named here, by UniProt entry; tags and fusion partners are left off. A change or cut given only in a name is not applied to a line headed by its entry.
UniProt O15269: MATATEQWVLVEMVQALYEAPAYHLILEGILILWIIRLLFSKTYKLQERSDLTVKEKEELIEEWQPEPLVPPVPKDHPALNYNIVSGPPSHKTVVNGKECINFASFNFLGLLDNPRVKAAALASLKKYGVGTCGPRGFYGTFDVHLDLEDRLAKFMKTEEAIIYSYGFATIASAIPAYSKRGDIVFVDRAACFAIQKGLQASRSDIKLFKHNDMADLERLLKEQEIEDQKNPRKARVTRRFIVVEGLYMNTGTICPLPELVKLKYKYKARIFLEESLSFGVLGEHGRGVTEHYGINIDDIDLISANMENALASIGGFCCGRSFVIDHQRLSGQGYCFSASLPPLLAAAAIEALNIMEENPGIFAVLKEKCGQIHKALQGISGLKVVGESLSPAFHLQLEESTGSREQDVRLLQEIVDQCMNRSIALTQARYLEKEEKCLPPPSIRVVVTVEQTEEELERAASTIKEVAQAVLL

This assay concerns the target SPTLC1^FLAG ex2del variant (missing the whole of exon 2; ALS) (human) (UniProt O15269). Description: co-IP; FLAG immunoprecipitation (anti-FLAG magnetic M2 beads, 3 hours) of SPTLC1^FLAG and variants from 20,000g membrane fractions solubilized with digitonin (1% wt/vol; 50 mM Tris pH 7.4, 150 mM NaCl, 20 mM MgCl2); eluates immunoblotted for SPTLC2 and ORMDLs. (A western blot detects proteins with antibodies after separation by electrophoresis.)

No constants are given. Whether binding was seen depends on the method and setting. Binding seen in cells or lysates may run through a third protein. A result given as binding can be weak or reduced; the word gives no strength.

B1: SPTLC2 (protein, UniProt O15270 1-562)
chain: MRPEPGGCCCRRTVRANGCVANGEVRNGYVRSSAAAAAAAAAGQIHHVTQNGGLYKRPFNEAFEETPMLVAVLTYVGYGVLTLFGYLRDFLRYWRIEKCHHATEREEQKDFVSLYQDFENFYTRNLYMRIRDNWNRPICSVPGARVDIMERQSHDYNWSFKYTGNIIKGVINMGSYNYLGFARNTGSCQEAAAKVLEEYGAGVCSTRQEIGNLDKHEELEELVARFLGVEAAMAYGMGFATNSMNIPALVGKGCLILSDELNHASLVLGARLSGATIRIFKHNNMQSLEKLLKDAIVYGQPRTRRPWKKILILVEGIYSMEGSIVRLPEVIALKKKYKAYLYLDEAHSIGALGPTGRGVVEYFGLDPEDVDVMMGTFTKSFGASGGYIGGKKELIDYLRTHSHSAVYATSLSPPVVEQIITSMKCIMGQDGTSLGKECVQQLAENTRYFRRRLKEMGFIIYGNEDSPVVPLMLYMPAKIGAFGREMLKRNIGVVVVGFPATPIIESRARFCLSAAHTKEILDTALKEIDEVGDLLQLKYSRHRLVPLLDRPFDETTYEETED
On to B1, for which the binding result is on record as “binds”.
